Experimental data reported in article PMC4066765, “Insights into how Spt5 functions in transcription elongation and repressing transcription coupled DNA repair” (Nucleic Acids Research, 2014).
These are yes or no findings as the source states them, for the method shown. Binding seen in cells or lysates may run through a third protein. Some binding calls cover weakened binding; strength is not graded here. Sequences can lack the tags named with a protein.

Protein sequences, listed by entry. Tags and fused reporters are not part of them.
UniProt P04050: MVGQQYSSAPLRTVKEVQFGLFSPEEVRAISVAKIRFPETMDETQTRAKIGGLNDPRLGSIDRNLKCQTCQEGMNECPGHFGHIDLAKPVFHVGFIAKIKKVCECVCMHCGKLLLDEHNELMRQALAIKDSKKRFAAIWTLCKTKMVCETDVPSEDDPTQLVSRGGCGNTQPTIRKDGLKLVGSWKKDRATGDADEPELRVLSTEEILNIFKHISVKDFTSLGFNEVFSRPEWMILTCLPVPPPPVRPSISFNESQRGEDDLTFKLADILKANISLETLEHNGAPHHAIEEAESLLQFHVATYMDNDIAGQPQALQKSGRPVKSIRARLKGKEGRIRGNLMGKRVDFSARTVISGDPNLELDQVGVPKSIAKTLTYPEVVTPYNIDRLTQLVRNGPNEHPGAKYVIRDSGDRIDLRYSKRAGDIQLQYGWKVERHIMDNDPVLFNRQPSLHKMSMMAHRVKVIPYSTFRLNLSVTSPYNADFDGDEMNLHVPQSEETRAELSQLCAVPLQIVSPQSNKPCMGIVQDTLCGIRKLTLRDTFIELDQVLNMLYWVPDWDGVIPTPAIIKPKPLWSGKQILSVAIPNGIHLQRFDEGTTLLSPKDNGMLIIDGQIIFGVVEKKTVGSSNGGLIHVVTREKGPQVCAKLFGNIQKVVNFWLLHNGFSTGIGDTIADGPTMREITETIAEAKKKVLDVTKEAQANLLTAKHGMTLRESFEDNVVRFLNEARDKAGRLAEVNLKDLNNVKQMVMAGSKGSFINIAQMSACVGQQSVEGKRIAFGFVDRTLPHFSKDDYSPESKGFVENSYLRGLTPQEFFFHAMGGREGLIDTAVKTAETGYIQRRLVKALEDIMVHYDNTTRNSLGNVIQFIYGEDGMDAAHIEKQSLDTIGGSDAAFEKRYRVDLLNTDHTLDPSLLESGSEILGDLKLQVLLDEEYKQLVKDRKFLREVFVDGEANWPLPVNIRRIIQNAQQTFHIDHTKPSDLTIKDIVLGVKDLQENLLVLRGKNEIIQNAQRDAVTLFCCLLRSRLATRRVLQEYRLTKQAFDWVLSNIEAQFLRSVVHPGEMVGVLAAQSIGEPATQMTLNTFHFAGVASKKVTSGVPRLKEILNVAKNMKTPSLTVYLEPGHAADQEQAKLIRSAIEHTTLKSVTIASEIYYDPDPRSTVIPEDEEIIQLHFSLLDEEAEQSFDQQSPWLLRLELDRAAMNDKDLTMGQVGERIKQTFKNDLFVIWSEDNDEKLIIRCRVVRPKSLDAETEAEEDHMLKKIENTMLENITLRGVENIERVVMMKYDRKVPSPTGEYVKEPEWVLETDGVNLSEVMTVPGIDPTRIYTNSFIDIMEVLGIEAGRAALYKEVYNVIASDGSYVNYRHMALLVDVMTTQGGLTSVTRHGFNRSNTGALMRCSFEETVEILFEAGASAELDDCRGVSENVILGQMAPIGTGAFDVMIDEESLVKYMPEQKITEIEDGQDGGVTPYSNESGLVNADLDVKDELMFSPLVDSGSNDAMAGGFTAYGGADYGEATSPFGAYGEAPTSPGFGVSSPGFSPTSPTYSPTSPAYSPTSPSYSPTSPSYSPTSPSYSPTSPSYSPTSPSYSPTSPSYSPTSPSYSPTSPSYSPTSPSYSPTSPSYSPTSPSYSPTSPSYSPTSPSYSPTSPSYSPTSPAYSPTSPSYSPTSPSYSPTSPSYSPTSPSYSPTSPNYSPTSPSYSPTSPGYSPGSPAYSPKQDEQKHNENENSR

B1: 3×Myc-tagged Spt5 (full-length, wild type) (protein, UniProt P27692 1-1063)
chain: MSDNSDTNVSMQDHDQQFADPVVVPQSTDTKDENTSDKDTVDSGNVTTTESTERAESTSNIPPLDGEEKEAKSEPQQPEDNAETAATEQVSSSNGPATDDAQATLNTDSSEANEIVKKEEGSDERKRPREEDTKNSDGDTKDEGDNKDEDDDEDDDDDDDDEDDDDEAPTKRRRQERNRFLDIEAEVSDDEDEDEDEEDSELVREGFITHGDDEDDEASAPGARRDDRLHRQLDQDLNKTSEEDAQRLAKELRERYGRSSSKQYRAAAQDGYVPQRFLLPSVDTATIWGVRCRPGKEKELIRKLLKKKFNLDRAMGKKKLKILSIFQRDNYTGRIYIEAPKQSVIEKFCNGVPDIYISQKLLIPVQELPLLLKPNKSDDVALEEGSYVRIKRGIYKGDLAMVDQISENNLEVMLKIVPRLDYGKFDEIDPTTQQRKSRRPTFAHRAPPQLFNPTMALRLDQANLYKRDDRHFTYKNEDYIDGYLYKSFRIQHVETKNIQPTVEELARFGSKEGAVDLTSVSQSIKKAQAAKVTFQPGDRIEVLNGEQRGSKGIVTRTTKDIATIKLNGFTTPLEFPISTLRKIFEPGDHVTVINGEHQGDAGLVLMVEQGQVTFMSTQTSREVTITANNLSKSIDTTATSSEYALHDIVELSAKNVACIIQAGHDIFKVIDETGKVSTITKGSILSKINTARARVSSVDANGNEIKIGDTIVEKVGSRREGQVLYIQTQQIFVVSKKIVENAGVFVVNPSNVEAVASKDNMLSNKMDLSKMNPEIISKMGPPSSKTFQQPIQSRGGREVALGKTVRIRSAGYKGQLGIVKDVNGDKATVELHSKNKHITIDKHKLTYYNREGGEGITYDELVNRRGRVPQARMGPSYVSAPRNMATGGIAAGAAATSSGLSGGMTPGWSSFDGGKTPAVNAHGGSGGGGVSSWGGASTWGGQGNGGASAWGGAGGGASAWGGQGTGATSTWGGASAWGNKSSWGGASTWASGGESNGAMSTWGGTGDRSAYGGASTWGGNNNNKSTRDGGASAWGNQDDGNRSAWNNQGNKSNYGGNSTWGGH
B2: 3×Myc-tagged KOW4-deleted Spt5 (protein, UniProt P27692)
chain: MSDNSDTNVSMQDHDQQFADPVVVPQSTDTKDENTSDKDTVDSGNVTTTESTERAESTSNIPPLDGEEKEAKSEPQQPEDNAETAATEQVSSSNGPATDDAQATLNTDSSEANEIVKKEEGSDERKRPREEDTKNSDGDTKDEGDNKDEDDDEDDDDDDDDEDDDDEAPTKRRRQERNRFLDIEAEVSDDEDEDEDEEDSELVREGFITHGDDEDDEASAPGARRDDRLHRQLDQDLNKTSEEDAQRLAKELRERYGRSSSKQYRAAAQDGYVPQRFLLPSVDTATIWGVRCRPGKEKELIRKLLKKKFNLDRAMGKKKLKILSIFQRDNYTGRIYIEAPKQSVIEKFCNGVPDIYISQKLLIPVQELPLLLKPNKSDDVALEEGSYVRIKRGIYKGDLAMVDQISENNLEVMLKIVPRLDYGKFDEIDPTTQQRKSRRPTFAHRAPPQLFNPTMALRLDQANLYKRDDRHFTYKNEDYIDGYLYKSFRIQHVETKNIQPTVEELARFGSKEGAVDLTSVSQSIKKAQAAKVTFQPGDRIEVLNGEQRGSKGIVTRTTKDIATIKLNGFTTPLEFPISTLRKIFEPGDHVTVINGEHQGDAGLVLMVEQGQVTFMSTQTSREVTITANNLSKSIDTTATSSEYALHDIVELSAKNVACIIQAGHDIFKVIDETGKVSTITKGSILSKINTARARVSSVDANGNEIMDLSKMNPEIISKMGPPSSKTFQQPIQSRGGREVALGKTVRIRSAGYKGQLGIVKDVNGDKATVELHSKNKHITIDKHKLTYYNREGGEGITYDELVNRRGRVPQARMGPSYVSAPRNMATGGIAAGAAATSSGLSGGMTPGWSSFDGGKTPAVNAHGGSGGGGVSSWGGASTWGGQGNGGASAWGGAGGGASAWGGQGTGATSTWGGASAWGNKSSWGGASTWASGGESNGAMSTWGGTGDRSAYGGASTWGGNNNNKSTRDGGASAWGNQDDGNRSAWNNQGNKSNYGGNSTWGGH
B3: 3×Myc-tagged KOW4-5-deleted Spt5 (protein, UniProt P27692)
chain: MSDNSDTNVSMQDHDQQFADPVVVPQSTDTKDENTSDKDTVDSGNVTTTESTERAESTSNIPPLDGEEKEAKSEPQQPEDNAETAATEQVSSSNGPATDDAQATLNTDSSEANEIVKKEEGSDERKRPREEDTKNSDGDTKDEGDNKDEDDDEDDDDDDDDEDDDDEAPTKRRRQERNRFLDIEAEVSDDEDEDEDEEDSELVREGFITHGDDEDDEASAPGARRDDRLHRQLDQDLNKTSEEDAQRLAKELRERYGRSSSKQYRAAAQDGYVPQRFLLPSVDTATIWGVRCRPGKEKELIRKLLKKKFNLDRAMGKKKLKILSIFQRDNYTGRIYIEAPKQSVIEKFCNGVPDIYISQKLLIPVQELPLLLKPNKSDDVALEEGSYVRIKRGIYKGDLAMVDQISENNLEVMLKIVPRLDYGKFDEIDPTTQQRKSRRPTFAHRAPPQLFNPTMALRLDQANLYKRDDRHFTYKNEDYIDGYLYKSFRIQHVETKNIQPTVEELARFGSKEGAVDLTSVSQSIKKAQAAKVTFQPGDRIEVLNGEQRGSKGIVTRTTKDIATIKLNGFTTPLEFPISTLRKIFEPGDHVTVINGEHQGDAGLVLMVEQGQVTFMSTQTSREVTITANNLSKSIDTTATSSEYALHDIVELSAKNVACIIQAGHDIFKVIDETGKVSTITKGSILSKINTARARVSSVDANGNEINREGGEGITYDELVNRRGRVPQARMGPSYVSAPRNMATGGIAAGAAATSSGLSGGMTPGWSSFDGGKTPAVNAHGGSGGGGVSSWGGASTWGGQGNGGASAWGGAGGGASAWGGQGTGATSTWGGASAWGNKSSWGGASTWASGGESNGAMSTWGGTGDRSAYGGASTWGGNNNNKSTRDGGASAWGNQDDGNRSAWNNQGNKSNYGGNSTWGGH

Each binder was assayed against Rpb1, largest subunit of RNA polymerase II (S. cerevisiae) (UniProt P04050) (assay: co-IP; chromatin fraction of log phase yeast cells solubilised by sonication in 50 mM HEPES pH 7.5, 140 mM NaCl, 1% Triton X-100, 0.1% sodium deoxycholate, 1 mM EDTA, 0.1% SDS; immunoprecipitated with 4 μg anti-Rpb1 8WG16; blots with 8WG16, 2Y14 and anti-Myc; cells expressing full-length, KOW4-deleted or KOW4-5-deleted Spt5).

binding, binds:
B1
B2
B3
